Test results as given in PubChem BioAssay AID328 (DTP/NCI, 2004).
The list does not hold the whole screen: it gathers tests that were run many times, whatever their T/C, doses with no T/C, and many T/C values between a quarter and a half above the control. Further doses and runs are listed elsewhere. T/C is the treated group as % of the vehicle group. Some entries give survivors of the animals treated and no T/C: the source files T/C as zero there, which appears to mark a toxic dose or a test without result, not a measured value. Some doses without a T/C left all or most animals alive at the check, yet need not have been tolerated: the source hardly ever lists a survival T/C far under the control, and the zero likely stands for such cases as well. Counts of survivors are from the toxicity check (mostly the fifth day) where no day follows; animals may have died later. Schedules are NCI's codes, read here as Q, the interval in days (D) or hours (H), X, the number of doses. Some entries hold several experiments; their values stand side by side, smallest first. Some schedules carry Z or #; the key to these is not given. For survival time, the PubChem record calls one and a half times the control and up active, and a quarter to a half above the control has no call in these data; cut-offs in other NCI protocols can differ. Some T/C values are followed by the survivors on the day toxicity was checked, most often the fifth; without a count, all were alive then.

Tested on: BDF1 mice, P388 leukemia ip, median survival T/C
Assay: NCI In Vivo Anticancer Drug Screen. Data for tumor model P388 Leukemia (intraperitoneal) in B6D2F1 (BDF1) mice
Conditions: T/C endpoint: median survival time, higher T/C = longer survival
Method in brief: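 Transplantable tumour in mice; compound vs vehicle dosing; survival scored; ratio of treated to control reported.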

[1] = dose: 200.0 mg/kg/injection, schedule: Q01DX009 (ip), vehicle: saline with Tween-80
[2] = dose: 100.0 mg/kg/injection, schedule: Q01DX009 (ip), vehicle: saline with Tween-80
[3] = dose: 400.0 mg/kg/injection, schedule: Q04DX003 (ip), vehicle: saline
[4] = dose: 12.5 mg/kg/injection, schedule: Q01DX009 (ip), vehicle: saline with Tween-80
[5] = dose: 50.0 mg/kg/injection, schedule: Q04DX003 (ip), vehicle: saline with Tween-80
[6] = dose: 100.0 mg/kg/injection, schedule: Q04DX003 (ip), vehicle: saline with Tween-80
[7] = dose: 50.0 mg/kg/injection, schedule: Q01DX009 (ip), vehicle: saline with Tween-80

Compound: CNC1=C(N2CC2)C(=O)C(NC)=C(N2CC2)C1=O
- T/C (dose: 0.05 mg/kg/injection, schedule: Q01DX009 (ip), vehicle: saline): 128 % of control
- survivor count (dose: 0.2 mg/kg/injection, schedule: Q01DX009 (ip), vehicle: saline): 6 of 6
- survivor count (dose: 0.4 mg/kg/injection, schedule: Q01DX009 (ip), vehicle: saline): 6 of 6
- survivor count (dose: 0.8 mg/kg/injection, schedule: Q01DX009 (ip), vehicle: saline): 3 of 6 and 6 of 6

Compound: CS(=O)(=O)OCCN(CCOS(C)(=O)=O)c1cccc(Cl)c1
- T/C (dose: 5.5 mg/kg/injection, schedule: Q01DX009 (ip), vehicle: Klucel (hydroxypropylcellulose) (HPC)): 136 % of control
- T/C (dose: 8.3 mg/kg/injection, schedule: Q01DX009 (ip), vehicle: Klucel (hydroxypropylcellulose) (HPC)): 145 % of control
- T/C (dose: 12.5 mg/kg/injection, schedule: Q04DX003 (ip), vehicle: saline): 130 % of control
- T/C (dose: 25.0 mg/kg/injection, schedule: Q04DX003 (ip), vehicle: saline): 140 % of control
- T/C (dose: 33.0 mg/kg/injection, schedule: Q04DX003 (ip), vehicle: other): 145 % of control

Compound: CCOC(=O)c1cc(N)c(C(=O)OCC)cc1N
- T/C [1]: 125 % of control

Compound: O=[As]O
- survivor count (dose: 16.0 mg/kg/injection, schedule: Q01DX009 (ip), vehicle: saline): 4 of 6
- survivor count (dose: 32.0 mg/kg/injection, schedule: Q01DX009 (ip), vehicle: saline): 0 of 6

Compound: CCN(CC)C(=S)S
- T/C (dose: 800.0 mg/kg/injection, schedule: Q01DX010 (ip), vehicle: water): 140 % of control

Compound: CCCCCCCC[N+](C)(CCCCCCCC)CCCCCCCC
- survivor count (dose: 3.25 mg/kg/injection, schedule: Q01DX001 (ip), vehicle: saline): 0 of 6 and 4 of 6
- survivor count (dose: 4.0 mg/kg/injection, schedule: Q01DX009 (ip), vehicle: saline): 5 of 6
- survivor count (dose: 4.6 mg/kg/injection, schedule: Q01DX009 (ip), vehicle: saline): 1 of 6
- survivor count (dose: 6.5 mg/kg/injection, schedule: Q01DX001 (ip), vehicle: saline): 3 of 6
- survivor count (dose: 7.0 mg/kg/injection, schedule: Q01DX009 (ip), vehicle: saline): 2 of 6
- survivor count (dose: 9.3 mg/kg/injection, schedule: Q04DX003 (ip), vehicle: saline): 4 of 6
- survivor count (dose: 10.0 mg/kg/injection, schedule: Q01DX009 (ip), vehicle: saline): 1 of 6
- survivor count (dose: 13.0 mg/kg/injection, schedule: Q01DX001 (ip), vehicle: saline): 0 of 6

Compound: Clc1nc2nnnn2c2ccccc12
- survivor count (dose: 80.0 mg/kg/injection, schedule: Q01DX009 (ip), vehicle: saline): 3 of 7

Compound: CC([NH-])C(=O)O.CC([NH-])C(=O)O.CC([NH-])C(=O)O.[Co+3] (stereo not given)
- survivor count (dose: 200.0 mg/kg/injection, schedule: Q01DX009 (ip), vehicle: water): 0 of 6
- survivor count (dose: 400.0 mg/kg/injection, schedule: Q04DX003 (ip), vehicle: water): 0 of 6

Compound: CC#CCOCC1CN(c2ccccc2)C(=O)O1 (stereo not given)
- survivor count [2]: 6 of 6

Compound: O=C(CN1CCCCC1)Nc1nc(-c2ccc(Cl)cc2)cs1
- survivor count (dose: 50.0 mg/kg/injection, schedule: Q01DX005 (ip), vehicle: saline with Tween-80): 5 of 5
- survivor count (dose: 200.0 mg/kg/injection, schedule: Q01DX005 (ip), vehicle: saline with Tween-80): 5 of 5

Compound: CCCCC[C@H](O)/C=C/[C@@H]1[C@@H](C/C=C\CCCC(=O)O)[C@@H](O)C[C@H]1O
- survivor count (dose: 2.0 mg/kg/injection, schedule: Q#A X020 (ip), vehicle: saline): 6 of 6
- survivor count (dose: 5.0 mg/kg/injection, schedule: Q04DX003 (ip), vehicle: saline with Tween-80): 6 of 6
- T/C (dose: 10.0 mg/kg/injection, schedule: Q04DX002 (ip), vehicle: saline): 131 % of control

Compound: Cn1cnc([N+](=O)[O-])c1Cl
- survivor count (dose: 200.0 mg/kg/injection, schedule: Q01DX005 (ip), vehicle: saline): 4 of 6
- survivor count [3]: 2 of 6

Compound: CCN(CC)CCNc1ccc(COC(=O)NC)c2sc3ccccc3c(=O)c12
- T/C (dose: 3.13 mg/kg/injection, schedule: Q01DX009 (ip), vehicle: saline with Tween-80): 132 % of control
- survivor count [4]: 5 of 6

Compound: O=c1cc(O)cc(/C=C/c2ccc(O)cc2)o1
- T/C (dose: 400.0 mg/kg/injection, schedule: Q01DX009 (ip), vehicle: saline with Tween-80): 131 % of control

Compound: CCC[CH2][Pb]([CH2]CCC)([O]C(C)=O)[O]C(C)=O
- survivor count (dose: 25.0 mg/kg/injection, schedule: Q04DX003 (ip), vehicle: saline with Tween-80): 0 of 6
- survivor count [5]: 0 of 6
- survivor count [6]: 0 of 6

Compound: CN(C)C1CCc2ccccc2C1OC(=O)/C=C/c1ccccc1 (stereo not given)
- T/C [7]: 125 % of control [5 of 6 alive]
- T/C [2]: 126 % of control
- survivor count [1]: 1 of 6 and 3 of 6

Compound: Cc1ccc2ccccc2n1
- survivor count [3]: 6 of 6

Compound: O=C(NO)c1cc(O)c(O)c(O)c1
- T/C (dose: 100.0 mg/kg/injection, schedule: Q01DX005 (ip), vehicle: distilled water + Tween-80): 140 % of control
- survivor count (dose: 800.0 mg/kg/injection, schedule: Q01DX005 (ip), vehicle: distilled water + Tween-80): 4 of 6

Compound: N#CCCCCCCCC#N
- survivor count (dose: 6.25 mg/kg/injection, schedule: Q04DX009 (ip), vehicle: saline): 1 of 6
- survivor count (dose: 12.5 mg/kg/injection, schedule: Q04DX009 (ip), vehicle: saline): 0 of 6
- survivor count (dose: 25.0 mg/kg/injection, schedule: Q04DX009 (ip), vehicle: saline): 0 of 6

Compound: COc1cccc2c1C(=O)c1c(O)c3c(c(O)c1C2=O)C[C@@](O)(C(=O)CO)C[C@@H]3OC1CC(NC(=O)C(F)(F)F)C(O)C(C)O1 (stereo not given in full)
- T/C (dose: 25.0 mg/kg/injection, schedule: Q04DX009 (ip), vehicle: other): 130 % of control
- T/C (dose: 50.0 mg/kg/injection, schedule: Q04DX009 (ip), vehicle: other): 148 % of control

Compound: O=c1[nH]c2ccccc2nc1CBr
- T/C [4]: 127 % of control
- survivor count (dose: 25.0 mg/kg/injection, schedule: Q01DX009 (ip), vehicle: saline with Tween-80): 5 of 6
- survivor count [7]: 3 of 6
- survivor count [5]: 5 of 6
- survivor count [6]: 6 of 6
- survivor count (dose: 200.0 mg/kg/injection, schedule: Q04DX003 (ip), vehicle: saline with Tween-80): 5 of 6
- survivor count (dose: 400.0 mg/kg/injection, schedule: Q04DX003 (ip), vehicle: saline with Tween-80): 0 of 6

Compound: CC1CC(=O)C(O)C2(C)C1CC1OC(=O)C(OC(=O)c3ccccc3)C3C(C)C(O)C4(O)OCC13C42 (stereo not given)
- T/C (dose: 0.5 mg/kg/injection, schedule: Q01DX009 (ip), vehicle: saline with Tween-80): 127 % of control
- T/C (dose: 32.0 mg/kg/injection, schedule: Q01DX009 (ip), vehicle: saline with Tween-80): 138 % of control

Compound: CCC[CH2][Sn]([Cl])([CH2]CCC)[S]C(=S)NCCNC(=S)[S][Sn]([Cl])([CH2]CCC)[CH2]CCC
- T/C (dose: 6.25 mg/kg/injection, schedule: Q01DX009 (ip), vehicle: Klucel (hydroxypropylcellulose) (HPC)): 140 % of control
- T/C (dose: 6.25 mg/kg/injection, schedule: Q04DX003 (ip), vehicle: Klucel (hydroxypropylcellulose) (HPC)): 147 % of control
- survivor count (dose: 25.0 mg/kg/injection, schedule: Q01DX009 (ip), vehicle: Klucel (hydroxypropylcellulose) (HPC)): 6 of 6
- survivor count (dose: 25.0 mg/kg/injection, schedule: Q04DX003 (ip), vehicle: Klucel (hydroxypropylcellulose) (HPC)): 4 of 6
- survivor count (dose: 50.0 mg/kg/injection, schedule: Q01DX009 (ip), vehicle: Klucel (hydroxypropylcellulose) (HPC)): 2 of 6
- survivor count (dose: 50.0 mg/kg/injection, schedule: Q04DX003 (ip), vehicle: Klucel (hydroxypropylcellulose) (HPC)): 0 of 6
- survivor count (dose: 100.0 mg/kg/injection, schedule: Q04DX003 (ip), vehicle: Klucel (hydroxypropylcellulose) (HPC)): 0 of 6
